Assay results: patent publication US20250075147A1, “FRAGRANCE AND FLAVOR COMPOSITIONS COMPRISING NEW FLAVOR AND FRAGRANCE INGREDIENTS” (priority 2023, published 2025)

Key:
odor evaluation panel = assay: Odor evaluation panel rating of odorants by Rate-All-That-Apply (RATA) method with 55-word odor lexicon, plus intensity and pleasantness; parameters: species or system human; conditions: for Floral: mean panelist score for odor label floral (RATA); for Fruity: mean panelist score for odor label fruity (RATA); for Spicy: mean panelist score for odor label spicy (RATA); for Sweet: mean panelist score for odor label sweet (RATA); for Pleasantness: mean panelist score for odor pleasantness
[1] = Evaluation by trained and/or certified flavor or fragrance chemists or master perfumers; categorization by commercial prospect; conditions: for Rating (category of commercial prospect): evaluation by trained flavor or fragrance chemists or master perfumers; for Rating: category of commercial prospect, (A) highest > (B) > (C) > (D) lowest, (E) requires further study

SMILES	Floral (odor evaluation panel)	Fruity (odor evaluation panel)	Spicy (odor evaluation panel)	Sweet (odor evaluation panel)	Pleasantness (odor evaluation panel)	Rating (category of commercial prospect) [1]	Rating [1]
CCOC(=O)[C@H](O)c1ccccc1 [Compound 832, ethyl (2R)-2-hydroxy-2-phenylacetate]	0.219	0.5	0	0.312	5.166	(D)	–
Cc1ccncc1C [Compound 897, 3,4-dimethylpyridine]	0.167	0.8	0.233	1.333	5.26	(D)	–
CCN1CCC(O)C1 (stereo not shown) [Compound 765, 1-ethylpyrrolidin-3-ol]	0.25	0.219	0.125	0.531	4.25	(D)	–
Cc1ccc(C#N)c(C)c1 [Compound 14, 2,4-dimethylbenzonitrile]	0.97	0.364	0.818	1.242	6.121	–	(D)
COc1ccc(C(=O)C2CC2)cc1 [Compound 570, cyclopropyl-(4-methoxyphenyl)methanone]	0.219	0.125	0.062	1.062	5.612	(C)	–
O=C1CC2CCC1C2 (stereo not shown) [Compound 17, bicyclo[2.2.1]heptan-2-one]	0	0	0.229	0.429	1.989	–	(D)
CCOC(=O)C(CC(C)C)C(=O)OCC [Compound 471, diethyl 2-(2-methylpropyl)propanedioate]	0.444	2.306	0.111	1.722	–	–	(D)
Cc1ccc(CC#N)cc1 [Compound 290, 2-(4-methylphenyl)acetonitrile]	0.688	0.688	0.781	1.344	4.997	–	(E)
CCCCCCCCCCS [Compound 861, decane-1-thiol]	0.222	0	0.056	0.139	–	(B)	–
CC(C)(C)OC(=O)N1CC(=CC#N)C1 [Compound 405, tert-butyl 3-(cyanomethylidene)azetidine-1-carboxylate]	0	0	0	0.25	–	–	(D)
C1CCC(NC2CCCCC2)CC1 [Compound 105, N-cyclohexyl cyclohexanamine]	0.167	0	0.056	0.111	–	–	(D)
N#Cc1cccs1 [Compound 876, thiophene-2-carbonitrile]	0.097	1.097	2.065	1.903	5.848	(A)	–
COC(C)CCOC(=O)CCS (stereo not shown) [Compound 520, 3-methoxybutyl 3-sulfanylpropanoate]	0	0	0.094	0	1.084	–	(D)
CCCC(=O)c1ccc2c(c1)OCO2 [Compound 227, 1-(1,3-benzodioxol-5-yl)butan-1-one]	0.156	1.406	0.094	0.906	6.281	–	(B)
Nc1ccc2c(c1)OCCO2 [Compound 313, 2,3-dihydro-1,4-benzodioxin-6-amine]	0.406	0.25	0.375	0.844	5.091	–	(D)
c1cc(C2OCCO2)cs1 [Compound 102, 2-thiophen-3-yl-1,3-dioxolane]	0.219	1.688	0.406	1.781	4.859	–	(B)
CC#CC(=O)O [Compound 201, but-2-ynoic acid]	0	0.25	0.139	0.333	–	–	(D)
N#CC/C=C/CC#N [Compound 137, (E)-hex-3-enedinitrile]	0.083	0.083	0	0.111	–	–	(D)
Cc1cccc(C=O)c1O [Compound 478, 2-hydroxy-3-methylbenzaldehyde]	0.438	0.5	0.281	1.812	5.997	–	(D)
CCCC[N+](=O)[O-] [Compound 307, 1-nitrobutane]	0.125	0.938	0.219	1.25	4.856	–	(D)
CCOC=Nc1ccccc1 [Compound 165, ethyl N-phenylmethanimidate]	0.278	1.194	0	1.278	–	–	(B)
CC(C)(C)OC(=O)NCCCCCCN [Compound 324, tert-butyl N-(6-aminohexyl)carbamate]	0.389	0.139	0.056	0.139	–	–	(D)
CCCCCCCCCCCCSC [Compound 560, 1-methylsulfanyldodecane]	0	0	0.083	0	–	–	(B)
CCNc1cc(O)ccc1C [Compound 411, 3-(ethylamino)-4-methylphenol]	0.125	0.344	0	0.281	4.222	–	(D)
SCCOCCOCCS [Compound 194, 2-[2-(2-sulfanylethoxy)ethoxy]ethanethiol]	0.056	0	0.083	0	–	–	(D)
c1cncc(Cn2cccc2)c1 [Compound 196, 3-(pyrrol-1-ylmethyl)pyridine]	0.324	0.324	0.176	1	5.279	–	(D)
Cc1occc1C(=O)O [Compound 918, 2-methylfuran-3-carboxylic acid]	0	0.344	0.031	1.688	5.416	(D)	–
OC12CC3CC(C1)CC(O)(C3)C2 [Compound 240, adamantane-1,3-diol]	0.083	0	0	0.25	–	–	(D)
